{"source": "patent US10195212B2", "about": "“Glucocorticoid-loaded nanoparticles for prevention of corneal allograft rejection and neovascularization” (The Johns Hopkins University, priority 2014, dated 2019)", "experiment": "In vivo ocular DSP levels after SC injection ([3H]-labeled DSP)", "parameters": "species or system Sprague Dawley rat", "protocol": "In order to detect the ocular DSP level after SC injection in rats, [3H]-labeled DSP spiked with DSP (10 μCi:1 mg DSP) during the preparation of F127-coated DSP-loaded PLGA nanoparticles (DSP-NP). Nanoparticles were suspended in saline at 20 μCi/mL. The free DSP solution at 20 μCi/mL was prepared at the same blending ratio. 40 μL (˜0.8 μCi per eye) of same formulation was injected to both eyes of the same animal (Sprague Dawley rat). At the indicated time intervals, 2 h, 1 day, 3 day, 5 day and 7 day after injection, the rats were anesthetized by intramuscular injection of ketamine/xylazine solution. The animal was sacrificed after collecting two drops of blood from the tail vein.\nThe eye ball with conjunctiva tissue was carefully removed from rats and rinsed with PBS, dried by Kimwipe tissue. The anterior chamber humor, cornea, vitreous, retina and the remaining eye ball tissue were carefully dissected and collected. Both cornea and retina tissues were rinsed with PBS and dried with Kimwipe tissue. All the samples were weighed, dissolved with 2 mL of Solvable by incubation at 50° C. overnight. Blood samples were bleached with 0.2 ml H2O2 and 20 μL, 0.5M EDTA. 10 ml […] scintillation medium was added before counting the radioactivity in a scintillation counter. The results were expressed as a percentage of the injected dose and are the mean±sd of four eyes (2 animals) per data point. […] Total percentage of injected dose at the periocular tissue and the radioactivity per mg (or mL) of tissue were calculated.\nExample 1 describes the in vivo ocular DSP level within 1 week after SC injection. […] Ten milliliters of Ultima gold scintillation medium (Perkin Elmer, Waltham, Mass.) was added before counting the radioactivity in a scintillation counter (Perkin Elmer, Waltham, Mass.). The results were expressed as a percentage of the injected dose and are the mean±standard deviation (SD) of four eyes per data point. […] The total percentage of the injected dose at the injection sites and the radioactivity per mg of tissue or mL of blood were calculated.", "note": "Where a name gives a salt, the structure may show the parent alone.", "data": [{"smiles": "C[C@@H]1C[C@H]2[C@@H]3CCC4=CC(=O)C=C[C@]4(C)[C@@]3(F)[C@@H](O)C[C@]2(C)[C@@]1(O)C(=O)COP(=O)(O)O", "note": "[DSP, Dexamethasone 21-phosphate sodium salt]", "values": [{"measurement": "blood DSP level relative to DSP-NP injection", "setting": "PO 2 h, SC injection", "value": "more than 8 fold"}, {"measurement": "duration of effective DSP concentration in anterior chamber", "setting": "SC administration", "value": "less than 6 hr"}, {"measurement": "time of peak concentration of DSP in aqueous and vitreous", "setting": "rat eyes, SC injection", "value": "two hours after injection"}]}]}
